This passage reports binding results from patent US6936690 (Takeda / Millennium, dated 2005).

Chains of the proteins cited; added tags and fusions are not shown. Lines headed by an entry give the natural chain unless they say otherwise; changes in a name come on top.
UniProt Q9BXL6: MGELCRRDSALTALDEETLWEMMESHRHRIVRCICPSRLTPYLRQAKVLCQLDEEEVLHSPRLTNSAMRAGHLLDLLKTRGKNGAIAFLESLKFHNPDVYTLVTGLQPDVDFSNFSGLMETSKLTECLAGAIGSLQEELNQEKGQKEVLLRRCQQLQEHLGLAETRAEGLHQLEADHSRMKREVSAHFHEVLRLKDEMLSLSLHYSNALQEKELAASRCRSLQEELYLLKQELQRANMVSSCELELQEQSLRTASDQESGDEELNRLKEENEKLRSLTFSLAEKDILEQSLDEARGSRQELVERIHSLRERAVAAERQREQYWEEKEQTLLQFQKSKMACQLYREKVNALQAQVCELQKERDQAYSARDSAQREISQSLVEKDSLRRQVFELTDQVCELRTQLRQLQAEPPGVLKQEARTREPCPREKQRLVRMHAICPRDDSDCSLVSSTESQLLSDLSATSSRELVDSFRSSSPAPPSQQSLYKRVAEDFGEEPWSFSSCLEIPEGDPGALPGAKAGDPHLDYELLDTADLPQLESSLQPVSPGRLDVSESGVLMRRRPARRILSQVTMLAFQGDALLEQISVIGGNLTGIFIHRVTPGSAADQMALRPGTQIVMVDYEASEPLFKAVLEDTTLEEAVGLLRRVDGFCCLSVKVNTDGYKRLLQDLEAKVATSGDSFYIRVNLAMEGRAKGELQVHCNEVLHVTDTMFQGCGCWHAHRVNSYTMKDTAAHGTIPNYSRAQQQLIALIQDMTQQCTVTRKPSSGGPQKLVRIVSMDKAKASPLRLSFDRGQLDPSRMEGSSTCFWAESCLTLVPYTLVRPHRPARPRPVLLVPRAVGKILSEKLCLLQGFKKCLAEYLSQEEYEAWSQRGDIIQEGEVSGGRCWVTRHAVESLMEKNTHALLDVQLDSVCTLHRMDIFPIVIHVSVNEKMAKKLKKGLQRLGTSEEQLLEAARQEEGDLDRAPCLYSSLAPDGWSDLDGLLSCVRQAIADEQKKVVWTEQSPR

No constants are given. Whether binding was seen depends on the method and setting. Binding seen in cells or lysates may run through a third protein. Some binding calls cover weakened binding; strength is not graded here. For part of these data: Tags and fused reporters may be left off the sequences shown.

One experiment concerns the target T1, GST-Bcl-10 wild type (UniProt O95999).
T1 sequence (looked up): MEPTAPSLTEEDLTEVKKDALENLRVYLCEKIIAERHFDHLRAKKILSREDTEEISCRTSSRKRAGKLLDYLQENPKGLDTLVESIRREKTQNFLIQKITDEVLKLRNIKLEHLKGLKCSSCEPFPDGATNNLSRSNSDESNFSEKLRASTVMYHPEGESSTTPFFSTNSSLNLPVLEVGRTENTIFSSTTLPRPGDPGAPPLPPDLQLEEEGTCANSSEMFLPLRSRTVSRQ
In words: GST pull-down on glutathione-sepharose, autoradiography.

In experiment [1] the target is T2, endogenous Bcl-10 of 293T cells (UniProt O95999).
T2 sequence (looked up): T1 sequence (looked up)
The experiment is described as follows: co-immunoprecipitation from 293T cells, anti-Myc immunoblot.

For experiment [2], the target named is T2, endogenous Bcl-10 of 293T cells. The experiment is described as follows: co-immunoprecipitation from 293T lysate with Bcl-10 monoclonal antibody, anti-Myc immunoblot.

With “CARD-14 protein labeled with 35S-methionine (from UniProt Q9BXL6 1-1004)”, in the experiment with GST-Bcl-10 wild type, the binding result is “binds”.

Regarding “Myc-tagged CARD-14 (full-length CARD-14 with C-terminal Myc epitopes, pCMV-Tag 5A) (from UniProt Q9BXL6 1-1004)”, the binding result in experiment [1] and in experiment [2] was “binds” in each case.
